1 substance from PMC5974425 can be followed below.

Amino acid sequences for entries named in this document (tags omitted).
UniProt Q12923: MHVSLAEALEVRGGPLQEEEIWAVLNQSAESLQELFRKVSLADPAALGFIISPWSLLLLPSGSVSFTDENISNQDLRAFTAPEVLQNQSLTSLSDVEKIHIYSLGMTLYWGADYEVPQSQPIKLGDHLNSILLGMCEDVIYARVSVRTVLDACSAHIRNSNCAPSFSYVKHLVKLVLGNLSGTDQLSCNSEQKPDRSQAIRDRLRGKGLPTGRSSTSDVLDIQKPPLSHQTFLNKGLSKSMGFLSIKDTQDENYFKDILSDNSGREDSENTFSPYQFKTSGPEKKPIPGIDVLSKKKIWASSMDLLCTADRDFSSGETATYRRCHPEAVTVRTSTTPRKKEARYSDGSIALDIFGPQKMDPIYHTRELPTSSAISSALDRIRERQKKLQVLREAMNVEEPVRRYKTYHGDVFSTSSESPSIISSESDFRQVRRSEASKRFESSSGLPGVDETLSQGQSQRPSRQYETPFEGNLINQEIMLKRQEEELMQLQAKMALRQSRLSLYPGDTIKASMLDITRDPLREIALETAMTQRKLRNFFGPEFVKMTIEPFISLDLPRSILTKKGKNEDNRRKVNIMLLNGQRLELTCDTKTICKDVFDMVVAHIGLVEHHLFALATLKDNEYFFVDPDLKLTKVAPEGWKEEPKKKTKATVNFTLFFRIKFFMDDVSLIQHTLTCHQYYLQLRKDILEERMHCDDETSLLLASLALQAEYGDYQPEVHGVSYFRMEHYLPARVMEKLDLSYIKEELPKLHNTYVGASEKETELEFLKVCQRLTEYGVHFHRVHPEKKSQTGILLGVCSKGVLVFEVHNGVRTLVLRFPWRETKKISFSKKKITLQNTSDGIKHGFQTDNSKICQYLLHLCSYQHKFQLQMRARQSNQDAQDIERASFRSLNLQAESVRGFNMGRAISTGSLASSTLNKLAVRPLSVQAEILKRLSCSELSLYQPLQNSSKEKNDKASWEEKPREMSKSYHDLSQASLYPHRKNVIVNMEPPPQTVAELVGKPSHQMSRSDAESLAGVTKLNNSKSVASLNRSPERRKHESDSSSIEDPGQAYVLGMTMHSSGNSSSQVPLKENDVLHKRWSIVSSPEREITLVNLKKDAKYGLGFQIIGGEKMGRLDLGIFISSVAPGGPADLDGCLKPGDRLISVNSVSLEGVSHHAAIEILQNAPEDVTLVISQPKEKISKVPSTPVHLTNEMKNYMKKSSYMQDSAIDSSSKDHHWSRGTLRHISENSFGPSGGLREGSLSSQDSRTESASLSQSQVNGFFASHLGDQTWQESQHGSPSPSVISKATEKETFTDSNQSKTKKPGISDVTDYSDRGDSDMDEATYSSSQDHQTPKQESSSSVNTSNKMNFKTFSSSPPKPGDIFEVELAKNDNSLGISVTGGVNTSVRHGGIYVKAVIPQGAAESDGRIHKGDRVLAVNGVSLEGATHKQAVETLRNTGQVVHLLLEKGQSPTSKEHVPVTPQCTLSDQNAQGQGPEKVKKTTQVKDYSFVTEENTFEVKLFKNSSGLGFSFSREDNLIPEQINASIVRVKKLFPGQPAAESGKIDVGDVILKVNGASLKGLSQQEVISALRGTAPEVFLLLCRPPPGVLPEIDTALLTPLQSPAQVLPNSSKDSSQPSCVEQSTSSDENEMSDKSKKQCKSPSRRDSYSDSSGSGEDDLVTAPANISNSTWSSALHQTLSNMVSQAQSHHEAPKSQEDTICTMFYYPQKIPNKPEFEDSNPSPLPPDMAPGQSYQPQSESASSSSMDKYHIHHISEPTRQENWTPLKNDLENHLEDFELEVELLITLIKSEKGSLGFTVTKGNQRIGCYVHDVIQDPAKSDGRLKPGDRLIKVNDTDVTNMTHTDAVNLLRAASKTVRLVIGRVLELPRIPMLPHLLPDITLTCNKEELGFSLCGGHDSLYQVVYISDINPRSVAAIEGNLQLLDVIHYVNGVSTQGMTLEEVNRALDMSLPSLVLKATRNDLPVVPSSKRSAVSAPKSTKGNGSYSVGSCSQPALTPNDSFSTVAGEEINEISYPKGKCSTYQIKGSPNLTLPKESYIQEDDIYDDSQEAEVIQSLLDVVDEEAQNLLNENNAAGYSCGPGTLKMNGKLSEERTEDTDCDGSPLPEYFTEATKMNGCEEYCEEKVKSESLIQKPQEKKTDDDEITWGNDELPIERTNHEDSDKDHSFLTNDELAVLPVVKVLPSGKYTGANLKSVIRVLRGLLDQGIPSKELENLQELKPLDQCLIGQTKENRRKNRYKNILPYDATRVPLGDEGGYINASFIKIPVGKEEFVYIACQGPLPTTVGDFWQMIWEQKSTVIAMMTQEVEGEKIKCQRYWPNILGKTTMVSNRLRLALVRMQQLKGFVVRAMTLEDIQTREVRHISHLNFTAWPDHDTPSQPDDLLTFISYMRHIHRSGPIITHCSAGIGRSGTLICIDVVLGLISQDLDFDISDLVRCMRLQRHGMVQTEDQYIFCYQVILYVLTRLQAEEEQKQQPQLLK
UniProt Q16513: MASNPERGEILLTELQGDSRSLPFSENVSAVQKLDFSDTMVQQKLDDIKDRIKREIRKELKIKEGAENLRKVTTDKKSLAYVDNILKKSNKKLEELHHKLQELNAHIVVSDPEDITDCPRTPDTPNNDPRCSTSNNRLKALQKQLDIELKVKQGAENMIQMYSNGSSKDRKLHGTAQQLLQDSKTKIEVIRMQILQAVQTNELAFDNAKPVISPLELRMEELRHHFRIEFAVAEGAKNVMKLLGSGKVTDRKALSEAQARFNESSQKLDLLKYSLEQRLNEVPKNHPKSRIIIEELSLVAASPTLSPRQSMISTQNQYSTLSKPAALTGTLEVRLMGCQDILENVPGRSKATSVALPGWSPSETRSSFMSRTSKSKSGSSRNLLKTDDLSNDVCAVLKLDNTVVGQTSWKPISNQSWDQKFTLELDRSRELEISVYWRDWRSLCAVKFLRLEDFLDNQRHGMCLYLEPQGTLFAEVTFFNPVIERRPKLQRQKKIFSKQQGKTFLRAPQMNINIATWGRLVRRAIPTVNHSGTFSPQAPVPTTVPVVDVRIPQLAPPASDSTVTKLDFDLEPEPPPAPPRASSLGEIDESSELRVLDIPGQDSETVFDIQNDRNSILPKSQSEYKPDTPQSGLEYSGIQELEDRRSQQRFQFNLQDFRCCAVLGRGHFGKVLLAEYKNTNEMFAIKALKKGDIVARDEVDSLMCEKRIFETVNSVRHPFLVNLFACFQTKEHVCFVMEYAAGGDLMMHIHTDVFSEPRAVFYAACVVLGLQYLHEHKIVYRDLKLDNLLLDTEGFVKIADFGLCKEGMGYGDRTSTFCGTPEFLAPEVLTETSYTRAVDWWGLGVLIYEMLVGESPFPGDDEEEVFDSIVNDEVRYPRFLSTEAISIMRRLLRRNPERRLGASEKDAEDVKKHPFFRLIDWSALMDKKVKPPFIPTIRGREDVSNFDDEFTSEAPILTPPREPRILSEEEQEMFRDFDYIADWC

This assay deals with GFP-PTPL1 wt (UniProt Q12923). As to the kind of experiment: co-IP; transfected HEK293T cells lysed in 1% Triton X-100, 50 mM Tris-HCl pH 7.5, 150 mM NaCl, 5 mM MgCl2; cleared lysates on agarose beads coupled to GFP binding protein, 1 h at 4°C; the GFP- or YFP-tagged protein is the bait; Western blot.

No constants are given. Whether binding was seen depends on the method and setting. In cells and extracts the contact can be indirect. Some binding calls cover weakened binding; strength is not graded here.

Take Flag-PKN2 (from UniProt Q16513 1-984): the binding entry is listed as “binds”.
